We go through one substance from article PMC5316833.

Protein sequences, listed by entry. Tags and fused reporters are not part of them.
UniProt Q86WV6: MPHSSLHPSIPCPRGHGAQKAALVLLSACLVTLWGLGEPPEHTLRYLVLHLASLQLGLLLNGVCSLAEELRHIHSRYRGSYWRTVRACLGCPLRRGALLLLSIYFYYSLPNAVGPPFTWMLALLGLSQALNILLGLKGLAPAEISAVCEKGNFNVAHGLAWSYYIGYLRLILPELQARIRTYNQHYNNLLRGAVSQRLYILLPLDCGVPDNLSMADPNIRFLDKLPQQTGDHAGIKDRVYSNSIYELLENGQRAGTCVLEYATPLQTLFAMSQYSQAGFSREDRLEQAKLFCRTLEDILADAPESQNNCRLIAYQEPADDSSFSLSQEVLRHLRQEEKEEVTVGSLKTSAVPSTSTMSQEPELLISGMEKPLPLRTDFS
UniProt Q16666: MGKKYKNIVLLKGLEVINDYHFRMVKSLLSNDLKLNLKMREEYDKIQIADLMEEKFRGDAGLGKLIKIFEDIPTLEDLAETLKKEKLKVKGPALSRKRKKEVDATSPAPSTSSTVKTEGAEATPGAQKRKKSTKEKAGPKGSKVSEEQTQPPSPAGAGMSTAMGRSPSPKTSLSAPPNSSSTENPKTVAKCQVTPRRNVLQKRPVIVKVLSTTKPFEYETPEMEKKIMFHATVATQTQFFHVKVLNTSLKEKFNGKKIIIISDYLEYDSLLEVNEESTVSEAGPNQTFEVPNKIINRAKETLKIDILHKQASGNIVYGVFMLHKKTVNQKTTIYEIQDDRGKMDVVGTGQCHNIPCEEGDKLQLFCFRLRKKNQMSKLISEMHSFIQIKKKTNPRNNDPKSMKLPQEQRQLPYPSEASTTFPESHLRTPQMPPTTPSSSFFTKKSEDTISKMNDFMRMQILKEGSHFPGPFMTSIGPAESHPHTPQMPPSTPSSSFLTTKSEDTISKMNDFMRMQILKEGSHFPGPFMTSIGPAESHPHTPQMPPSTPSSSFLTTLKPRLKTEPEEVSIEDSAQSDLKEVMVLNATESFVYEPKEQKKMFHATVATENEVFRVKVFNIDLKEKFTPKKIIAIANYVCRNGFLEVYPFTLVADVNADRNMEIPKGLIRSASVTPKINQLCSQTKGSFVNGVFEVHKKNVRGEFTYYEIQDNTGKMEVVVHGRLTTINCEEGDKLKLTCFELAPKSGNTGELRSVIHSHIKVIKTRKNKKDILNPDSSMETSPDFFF

No constants are given. Whether binding was seen depends on the method and setting. In cells and extracts the contact can be indirect. Some binding calls cover weakened binding; strength is not graded here.

This test deals with STING, endogenous in HaCaT keratinocytes (human (endogenous in HaCaT)) (UniProt Q86WV6). In words: co-IP; STING immunoprecipitated from HaCaT cells transfected with 5 ug/ml HT DNA for the times indicated; western blot. A general note: Immunoblotting shows a protein as a band on a membrane.

As to “interferon-γ inducible protein 16 (IFI16), endogenous in HaCaT keratinocytes (from UniProt Q16666 1-785)”, the binding result is recorded as “binds weakly”.
